Consider one molecule from PMC12024224.

This experiment has as its target Sirtuin 3 (SIRT3), Flag-tagged (human). Briefly: co-IP; exogenous: HEK293T cells transfected with Flag-SIRT3 and HA-SLC25A22; immunoprecipitation with anti-Flag or anti-HA, Western blot; IP buffer 150 mM NaCl, 50 mM Tris pH 7.4, 0.5% deoxycholic acid, 1% NP40, 0.1% SDS; overnight at 4 °C. A general note: In western blotting, separated proteins are transferred to a membrane and probed.

These are yes or no findings as the source states them, for the method shown. In cells and extracts the contact can be indirect. A result given as binding can be weak or reduced; the word gives no strength. Sequences can lack the tags named with a protein.

B1: Solute carrier family 25 member A22 (SLC25A22), HA-tagged (protein, UniProt Q9H936 1-323)
chain: MADKQISLPAKLINGGIAGLIGVTCVFPIDLAKTRLQNQQNGQRVYTSMSDCLIKTVRSEGYFGMYRGAAVNLTLVTPEKAIKLAANDFFRHQLSKDGQKLTLLKEMLAGCGAGTCQVIVTTPMEMLKIQLQDAGRIAAQRKILAAQGQLSAQGGAQPSVEAPAAPRPTATQLTRDLLRSRGIAGLYKGLGATLLRDVPFSVVYFPLFANLNQLGRPASEEKSPFYVSFLAGCVAGSAAAVAVNPCDVVKTRLQSLQRGVNEDTYSGILDCARKILRHEGPSAFLKGAYCRALVIAPLFGIAQVVYFLGIAESLLGLLQDPQA
Consider B1, for which the binding result is listed as “binds”.
